The other results are listed elsewhere or left out.
Target: T1, OsSMF1 (Oryza sativa, UniProt Q6ZLB0 1-436)
T1 sequence: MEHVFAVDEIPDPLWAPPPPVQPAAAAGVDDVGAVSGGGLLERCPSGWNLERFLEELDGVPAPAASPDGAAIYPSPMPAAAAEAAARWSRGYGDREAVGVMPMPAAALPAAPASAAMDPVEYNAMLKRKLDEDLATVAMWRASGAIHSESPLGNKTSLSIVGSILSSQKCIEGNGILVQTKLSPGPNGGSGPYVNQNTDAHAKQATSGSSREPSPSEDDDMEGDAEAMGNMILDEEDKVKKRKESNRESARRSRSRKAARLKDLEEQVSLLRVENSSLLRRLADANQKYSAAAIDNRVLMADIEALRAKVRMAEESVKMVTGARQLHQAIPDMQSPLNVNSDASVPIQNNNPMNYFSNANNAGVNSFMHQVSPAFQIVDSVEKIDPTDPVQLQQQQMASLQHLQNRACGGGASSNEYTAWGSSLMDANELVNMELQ
Experiment: protein-binding microarray (RPBM); PBS, 2% BSA, 51.3 ng/ul salmon testes DNA, 50 uM zinc acetate, 200 nM TF, 25 C, 1 h; high values mean tight binding
Settings: protein: recombinant; tags: N-terminal polyhistidine and DsRed monomer fusion (pET32a); chain copies: 2; label: CyDye5-dUTP incorporated in the synthesized complementary strand; 3' TTTTT single-stranded linker to array surface; dsDNA, one strand shown
How it was run: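 Polyhistidine-tagged DsRed fusions of transcription factors, joined at the N-terminus, were expressed in E. coli BL21-CodonPlus and isolated on Ni–NTA. They were incubated at 200 nM for 1 h at 25 °C on a custom Agilent array, double-stranded and BSA-blocked, in PBS with 2% BSA, salmon testes DNA and 50 µM zinc acetate. The binding signal is per-feature fluorescence intensity (arbitrary units) read on an Axon 4000B scanner after washing.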

For “CCAAAGCCACTTTTGACCGTGGTCTTACCTACGTGACACGCGGAGTCACCTAGTGCAG”, which binding signal is on record?
The binding signal was 5060 fluorescence intensity (a.u.).

Which binding signal does the source give for “GACCGTCGGTGCAAACACGATCGGACGGTGGAGGACGATCCGGAGTCACCTAGTGCAG” here?
The binding signal was 3250 fluorescence intensity (a.u.).

For “TTTTAGTGAATATAATGAAATTTCACAGGGGAGGGGCTGGCGGAGTCACCTAGTGCAG”, which binding signal is on record?
Its binding signal is 4040 fluorescence intensity (a.u.).

“GGACCGAACTGACCCTACATTGCATGAATAATGCAGAGGTCGGAGTCACCTAGTGCAG” was tested. Which binding signal did it give?
Its binding signal is 20800 fluorescence intensity (a.u.).

For “TCGCCTCTTGTGCCATTATCTGACTGGGGCTGATGAACAACGGAGTCACCTAGTGCAG”, which binding signal is on record?
The binding signal was 3370 fluorescence intensity (a.u.).

How did the binding signal turn out when “TATCGTACGCGACTAGGCGTGTGAGGTGACGGCAGTTTTGCGGAGTCACCTAGTGCAG” was run?
Its binding signal is 3840 fluorescence intensity (a.u.).

With “GGGGTGCTTCACAAATCCCCTTGCGTACATGAGGTGTTTTCGGAGTCACCTAGTGCAG” as the sequence, how does the binding signal read?
Its binding signal is 3320 fluorescence intensity (a.u.).

“CACCTAGCACAGCACCATGACTAGACTATGATCATCAATTCGGAGTCACCTAGTGCAG” was tested. Which binding signal did it give?
Its binding signal is 3580 fluorescence intensity (a.u.).

With “TGCACTGTGACTTCTGACTGTTATAAATTGTGTTCTCTTGCGGAGTCACCTAGTGCAG” as the sequence, how does the binding signal read?
Its binding signal is 3550 fluorescence intensity (a.u.).

How did the binding signal turn out when “AGCTTAATATAGCACGTCAGCTTCTCAGCTCTAACCTCTCCGGAGTCACCTAGTGCAG” was run?
Its binding signal is 5780 fluorescence intensity (a.u.).

Which binding signal does the source give for “CAGTTTCTTCAGAGTTTTCTGAATGATGCTTATGATACATCGGAGTCACCTAGTGCAG” here?
The binding signal was 3230 fluorescence intensity (a.u.).

With “CGACACATGACTTCACCGCCTGACGCCGCCTCACCACCCACGGAGTCACCTAGTGCAG” as the sequence, how does the binding signal read?
Its binding signal is 4770 fluorescence intensity (a.u.).

For “AAAATACAGATCCGTGTTTGAGTCAGATTTTAAATTCGTTCGGAGTCACCTAGTGCAG”, which binding signal is on record?
Its binding signal is 3140 fluorescence intensity (a.u.).

For “TACCTCCAAAGGCAGTTCATTTCGAAGTCAAAGAGAAGTTCGGAGTCACCTAGTGCAG”, which binding signal is on record?
The binding signal was 3360 fluorescence intensity (a.u.).

“CGCGTGCCCAGCGCGCGTCACGTGGTCACACGCGGTGCGGCGGAGTCACCTAGTGCAG” was tested. Which binding signal did it give?
The binding signal was 3870 fluorescence intensity (a.u.).

With “TACTTGCGGTAACCTGTCAATTGGTCATACGTCAAGGGTCCGGAGTCACCTAGTGCAG” as the sequence, how does the binding signal read?
Its binding signal is 4320 fluorescence intensity (a.u.).

Which binding signal does the source give for “TAAATTTGACTAAATATAACCCATGGTGACGTATCGACTACGGAGTCACCTAGTGCAG” here?
Its binding signal is 5630 fluorescence intensity (a.u.).

Which binding signal does the source give for “TCAAACATCTGATGTGACATGGACTAAAGTTTAGTCCCTACGGAGTCACCTAGTGCAG” here?
The binding signal was 4150 fluorescence intensity (a.u.).

“TTCTCCCACCGCATCCTCTCTCCCCTTGAGTATTTACTTTCGGAGTCACCTAGTGCAG” was tested. Which binding signal did it give?
The binding signal was 3420 fluorescence intensity (a.u.).

“ATTATTCATAAGCTGAATATTCTTATTCATACATTCGGATCGGAGTCACCTAGTGCAG” was tested. Which binding signal did it give?
The binding signal was 6460 fluorescence intensity (a.u.).

For “ACAAGTTGAGTCATGTTCACGTCAGTTGGGTGGTATGAATCGGAGTCACCTAGTGCAG”, which binding signal is on record?
Its binding signal is 5980 fluorescence intensity (a.u.).

With “GCTTGCTTTTCCTCTCCTGACGCGTGCGCTGCTGCTGCTCCGGAGTCACCTAGTGCAG” as the sequence, how does the binding signal read?
The binding signal was 4840 fluorescence intensity (a.u.).

For “CGGCCGCCGGCGCCCTCCACGACCCCAACGTCGACATGCTCGGAGTCACCTAGTGCAG”, which binding signal is on record?
Its binding signal is 4310 fluorescence intensity (a.u.).

Which binding signal does the source give for “CACAAATCCAGATCGTATCAGCTGATTGATTCATTCTGATCGGAGTCACCTAGTGCAG” here?
Its binding signal is 3160 fluorescence intensity (a.u.).

How did the binding signal turn out when “ATCCAGCTCCACCTCTATAGTTCAGCCTTGTTTGGCACCGCGGAGTCACCTAGTGCAG” was run?
The binding signal was 3270 fluorescence intensity (a.u.).

With “GCCACTGGATCCAGCGACCCCGGCCACTTCGCCGGCGGCTCGGAGTCACCTAGTGCAG” as the sequence, how does the binding signal read?
The binding signal was 3340 fluorescence intensity (a.u.).

How did the binding signal turn out when “AGACTTTCAGTAAACTCCCCACATCATCATGTTATTATCGCGGAGTCACCTAGTGCAG” was run?
The binding signal was 3980 fluorescence intensity (a.u.).

With “GCATCCCAGCCGTCCACGTCCCGGAGGAATAACACACCCTCGGAGTCACCTAGTGCAG” as the sequence, how does the binding signal read?
The binding signal was 4270 fluorescence intensity (a.u.).

Which binding signal does the source give for “TAAAATCAATCAGGTTTCAATATCAATAGGTGTTTTCACTCGGAGTCACCTAGTGCAG” here?
Its binding signal is 3240 fluorescence intensity (a.u.).

Which binding signal does the source give for “GCGGGAAGGCGCGCAGTGACGGCAACGGTGACCCCACATGCGGAGTCACCTAGTGCAG” here?
The binding signal was 3820 fluorescence intensity (a.u.).

Which binding signal does the source give for “ATCCGCAGTTCCACCCGCACGTGACTGCATAATACCGTGACGGAGTCACCTAGTGCAG” here?
Its binding signal is 3440 fluorescence intensity (a.u.).

Which binding signal does the source give for “TTCGAGGAGGGGTTCTCCTTCTCCCGCGACGTCACCTACGCGGAGTCACCTAGTGCAG” here?
The binding signal was 4400 fluorescence intensity (a.u.).

For “TAATTAACGGTCGAGTTGCAGCTGATGTGTATAATCATCGCGGAGTCACCTAGTGCAG”, which binding signal is on record?
Its binding signal is 4270 fluorescence intensity (a.u.).

For “TTGAAATTTAAAACTCGGTATTTAATTTAGTCTCATTGCTCGGAGTCACCTAGTGCAG”, which binding signal is on record?
The binding signal was 30700 fluorescence intensity (a.u.).

How did the binding signal turn out when “GAAGAGCGCCACGAGGCCGGCGAGGAAGCTCCGATCGACGCGGAGTCACCTAGTGCAG” was run?
Its binding signal is 3170 fluorescence intensity (a.u.).

For “GAATCGGGGTCTACAGCTGGCATGGTACGGATCGAACTCGCGGAGTCACCTAGTGCAG”, which binding signal is on record?
The binding signal was 3990 fluorescence intensity (a.u.).

“ATAAGATTCATTCATCAGCAACGTTGACGTAAGCTTCCGTCGGAGTCACCTAGTGCAG” was tested. Which binding signal did it give?
Its binding signal is 5770 fluorescence intensity (a.u.).

How did the binding signal turn out when “CATGGACAATAACACGTGCGTCCCAGGTCATGCTTTACGCCGGAGTCACCTAGTGCAG” was run?
Its binding signal is 4420 fluorescence intensity (a.u.).

“AAGTTAAATATCCCTCGTTCGTGTCAGAGACAAGCCAGCACGGAGTCACCTAGTGCAG” was tested. Which binding signal did it give?
Its binding signal is 3280 fluorescence intensity (a.u.).

For “CTCTCGGTGTTGCTCACCCCGACCGGCGGGCCGCCGCTCCCGGAGTCACCTAGTGCAG”, which binding signal is on record?
The binding signal was 3420 fluorescence intensity (a.u.).

How did the binding signal turn out when “TCCAACGCCGCTGTCATTTCCAATCTCCCACCCATTTACTCGGAGTCACCTAGTGCAG” was run?
The binding signal was 16000 fluorescence intensity (a.u.).

With “GTTGAATGTCTAGTTGACGCAGAAGAATCCTTGTATTCCACGGAGTCACCTAGTGCAG” as the sequence, how does the binding signal read?
The binding signal was 3240 fluorescence intensity (a.u.).

Reference: paper PMC7819943, “Rice protein-binding microarrays: a tool to detect cis-acting elements near promoter regions in rice”
